Reference: PubChem BioAssay AID504327 (National Center for Advancing Translational Sciences (NCATS), 2011)
Hit rate of the full screen: of about 390,000 compounds, about 820 (0.21%) were called active. Inconclusive means that the source gave no clear call. Such entries were picked first, then a sample of the others. The call rests on the fitted dose curve; in most records, active means well fitted inhibition curve with a large enough effect; inconclusive means small, poorly fitted or top-dose-only effect, or another doubt; inactive means no such curve, though single readings can be large or run the other way. Potencies beside an inconclusive call are fits to weak or partial responses and may not hold up.

Protein sequences, listed by entry. Tags and fused reporters are not part of them.
UniProt Q92830, whole entry, looked up: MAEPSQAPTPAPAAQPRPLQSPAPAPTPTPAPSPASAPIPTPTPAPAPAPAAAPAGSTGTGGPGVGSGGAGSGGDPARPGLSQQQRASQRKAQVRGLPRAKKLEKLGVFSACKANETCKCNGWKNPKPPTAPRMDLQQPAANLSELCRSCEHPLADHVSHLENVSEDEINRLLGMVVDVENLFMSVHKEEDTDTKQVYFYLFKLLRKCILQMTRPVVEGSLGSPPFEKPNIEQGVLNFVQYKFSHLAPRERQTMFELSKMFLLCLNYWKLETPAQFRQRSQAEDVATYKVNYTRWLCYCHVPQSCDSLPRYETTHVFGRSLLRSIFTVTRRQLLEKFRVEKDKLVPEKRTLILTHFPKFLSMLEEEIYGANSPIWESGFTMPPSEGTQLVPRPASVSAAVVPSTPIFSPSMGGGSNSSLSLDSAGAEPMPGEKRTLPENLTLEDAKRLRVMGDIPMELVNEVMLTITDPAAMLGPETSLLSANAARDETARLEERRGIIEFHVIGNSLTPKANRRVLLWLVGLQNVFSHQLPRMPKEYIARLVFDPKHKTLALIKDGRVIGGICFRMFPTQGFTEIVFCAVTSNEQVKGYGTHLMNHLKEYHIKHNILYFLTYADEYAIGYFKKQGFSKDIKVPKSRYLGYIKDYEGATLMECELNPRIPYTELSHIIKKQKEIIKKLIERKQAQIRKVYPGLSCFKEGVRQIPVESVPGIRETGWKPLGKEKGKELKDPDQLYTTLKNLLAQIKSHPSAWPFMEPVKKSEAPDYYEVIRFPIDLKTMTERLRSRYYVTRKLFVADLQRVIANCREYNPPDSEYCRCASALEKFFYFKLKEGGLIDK

What follows are compounds tested against Histone acetyltransferase KAT2A (Homo sapiens) (UniProt Q92830) (assay: qHTS Assay for Inhibitors of GCN5L2). Details: GCN5L2 HAT assay, ThioGlo1 CoA-SH fluorescence; activity change, negative = inhibition: at 58.9 µM (top of the series) unless noted.
In short: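 Enzyme at 20nM final was mixed with library compounds for 15 min at room temperature. Peptide H3(1-25) at 75uM, acetyl-CoA at 70uM and ThioGlo1 at 50uM were then added. Plates were read immediately and after 20 min (Ex340nm/Em540nm).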
On the % scale 0 is the no-effect control and ±100 the full control effect; potency means the concentration at half of the fitted maximal effect.

SMILES | activity change, negative = inhibition | Potency
CS(=O)(=O)N(CC(=O)NC1CCCC1)Cc1ccc(Cl)cc1 | inconclusive: -33.9% [inhibitor] | –
Cc1nc2ccccc2c(=O)n1NC(=O)COc1ccccc1 | – | inconclusive: 10 µM [inhibitor, partial curve]
CCOC(=O)C1=C(C)NC(=S)NC1c1cc(C)sc1C (stereo not drawn) | – | inconclusive: 25.1 µM [inhibitor, single point]
O=C(/C=C/c1ccc[nH]1)c1ccccc1 | – | inactive
COc1ccc(-c2nnc(SCc3c(C)noc3C)n2N)cc1OC | – | inconclusive: 0.1 µM [inhibitor, full curve, poor fit]
COc1ccc(C(C)=O)cc1CSc1nc2ccccc2c(=O)n1-c1ccccc1 | – | inactive
Cc1ccc(C)c(OCCC(=O)NCCc2ccc(F)cc2)c1 | – | inconclusive: 0.794 µM [inhibitor, single point]
CCN1CCN(c2csc3ccc(F)cc3c2=O)CC1 | – | inconclusive: 1 µM [inhibitor, single point]
Cc1ccc(C)c(S(=O)(=O)Nc2ccc3scnc3c2)c1 | – | inconclusive: 39.8 µM [inhibitor, single point]
COC(=O)Nc1ccc(S(=O)(=O)N2CCCCC2C(=O)O)cc1 (stereo not drawn) | – | inactive
C/C(=N\NC(=O)C(C)Nc1cccc(Cl)c1)c1ccc([N+](=O)[O-])cc1 (stereo not drawn) | – | inactive
CCC(=O)Nc1c(-c2ccccc2Cl)c(=O)c2ccccc2n1C | – | inconclusive: 2.24 µM [inhibitor, partial curve, poor fit]
COc1cc2c(cc1OC)[C@H](C)N(C(=S)Nc1ccc(F)cc1)CC2 | – | inconclusive: 3.98 µM [inhibitor, single point]
COc1cccc(-n2ccnc2SCC(=O)Nc2cc(OC)ccc2OC)c1 | – | inconclusive: 0.562 µM [inhibitor, single point]
CCCc1cc(=O)[nH]c(SCC(=O)Nc2cc3c(cc2C(C)=O)OCO3)n1 | – | inconclusive: 20 µM [inhibitor, single point]
CC(=O)Nc1ccc(S[C@@H](CCN2CC[C@H](C(C)(C)C)CCC2=O)c2ccccc2)cc1 | – | inconclusive: 39.8 µM [inhibitor, single point]
CCN(CC)C(=O)C1CCN(CC2CC=CCC2)CC1 (stereo not drawn) | – | inactive
CCOC(=O)CSc1nnc(CNC(=O)c2cccs2)n1-c1ccccc1 | – | inconclusive: 0.112 µM [inhibitor, full curve, poor fit]
CN(Cc1ccccc1)C(=O)c1[nH]cnc1C(=O)N[C@@H](CCCCNC(=O)OC(C)(C)C)C(=O)OC(C)(C)C | – | inactive
O=C(CCc1ccccc1)N(Cc1cccnc1)c1nc2c(F)cc(F)cc2s1 | – | inactive
O=C(N/N=C/C=C\c1ccccc1[N+](=O)[O-])c1cc(-c2ccccc2)nc2ccccc12 | – | inactive
Cc1cc(C)cc(Nc2ccc(C(=O)O)cc2N)c1 | – | inconclusive: 28.2 µM [inhibitor, single point]
Cc1sc(NC(=O)COc2ccccc2)c(C#N)c1C | – | inconclusive: 22.4 µM [inhibitor, single point]
COc1ccc(CNC(=O)COc2ccc(C(=O)c3ccc(F)cc3)cc2)cc1 | – | inactive
COc1ccc(NC(=O)c2ccccc2O)c(OC)c1 | inconclusive: -87.3% [inhibitor] [at 0.501 µM] | –

Four entries from above, with each value named.
CC(=O)Nc1ccc(S[C@@H](CCN2CC[C@H](C(C)(C)C)CCC2=O)c2ccccc2)cc1
  Potency: inconclusive: 39.8 µM [inhibitor, single point]
CCN(CC)C(=O)C1CCN(CC2CC=CCC2)CC1 (stereo not drawn)
  Potency: inactive
CCOC(=O)CSc1nnc(CNC(=O)c2cccs2)n1-c1ccccc1
  Potency: inconclusive: 0.112 µM [inhibitor, full curve, poor fit]
CN(Cc1ccccc1)C(=O)c1[nH]cnc1C(=O)N[C@@H](CCCCNC(=O)OC(C)(C)C)C(=O)OC(C)(C)C
  Potency: inactive

(listing goes on)

SMILES | activity change, negative = inhibition | Potency
CCCCCCCCCCC1=C(C)C(=O)C(OC)=C(OC)C1=O | – | inactive
O=C(NC1CCCCCC1)c1ccc(-n2cnnc2)cc1 | – | inconclusive: 7.08 µM [inhibitor, single point]
CCN(CC)CCCN(Cc1cc2cc3c(cc2[nH]c1=O)OCO3)C(=S)NC | – | inactive
Clc1cccc(-c2nn3c(COc4ccccc4)nnc3s2)c1 | – | inactive
Cc1ccc(OCc2cc(=O)n3c4c(sc3n2)CCCC4)cc1C | – | inactive
Cc1ccc([N+](=O)[O-])cc1NC(=O)Cc1cccs1 | – | inconclusive: 39.8 µM [inhibitor, single point]
C=CCOc1ccc(Br)cc1/C=N/O | – | inconclusive: 35.5 µM [inhibitor, single point]
Cn1cnnc1SCC(=O)Nc1sc2c(c1C(N)=O)CCC2 | – | inconclusive: 20 µM [inhibitor, partial curve]
Cn1c(/C=C/c2ccccc2)nc2ccccc2c1=O | – | inconclusive: 31.6 µM [inhibitor, single point]
O=C1CNC(=O)N1Cc1ccc(Br)cc1 | – | inconclusive: 1.26 µM [inhibitor, partial curve]
CC[C@H]1NC(=O)c2cc(S(N)(=O)=O)c(Cl)cc2N1 | – | inconclusive: 15.8 µM [inhibitor, single point]
O=C(O)CN1C(=O)/C(=C\c2cc(Br)ccc2OCc2ccc(F)cc2)SC1=S | – | inconclusive: 39.8 µM [inhibitor, single point]
COc1ccc(Nc2ncc(C(=O)N3CCN(c4ccccc4OC)CC3)c3ccccc23)cc1 | – | inconclusive: 39.8 µM [inhibitor, single point]
CC1(OC(=O)C2CCCC2)C(=O)C=C2C=C(c3ccsc3)N(c3ccccc3)C=C2C1=O (stereo not drawn) | – | inactive
CCOC(=O)C1=CC[C@H]2c3c(c4ccc(OC)cc4n3C)C(=O)C1N2S(=O)(=O)c1ccc(C)cc1 | – | inconclusive: 28.2 µM [inhibitor, partial curve]
COc1cccc(/C=N/NC(=O)c2c(-c3ccccc3)noc2C)c1O | – | inactive
COC(=O)c1nccc2c1[nH]c1ccccc12 | – | inconclusive: 20 µM [inhibitor, single point]
Cc1ccc(Cn2cccc2/C=N/NC(=S)Nc2ccc(C)cc2)cc1 | – | inactive
CCN(CC)Cc1c(O)c(Cl)cc2c3c(c(=O)oc12)CCCC3 | – | inconclusive: 11.2 µM [inhibitor, partial curve]
COc1ccc(OC(=O)C(C)N2C(=O)c3ccccc3C2=O)cc1 (stereo not drawn) | – | inactive
O=C(NC1CCCC1)c1cccc(NC(=O)c2ccco2)c1 | inconclusive: -70.3% [inhibitor] | –
CCCCN(Cc1ccco1)S(=O)(=O)c1ccc(-c2ccc(=O)[nH]n2)s1 | – | inactive
CN(NC(=O)Nc1ccccc1)c1cnn(C)c(=O)c1Cl | – | inconclusive: 0.112 µM [inhibitor, full curve, poor fit]
CCCCCCc1ccc(-c2ncc(N)cn2)cc1 | – | inconclusive: 3.55 µM [inhibitor, single point]
CC(=O)Nc1c(-c2ccccc2)nc2ncccn12 | – | inconclusive: 22.4 µM [inhibitor, single point]

SMILES | activity change, negative = inhibition | Potency
NC(=O)c1ccsc1NC(=O)COC(=O)Cc1ccsc1 | – | inconclusive: 39.8 µM [inhibitor, partial curve, poor fit]
CC(OC(=O)c1ccc(NS(=O)(=O)c2ccc3[nH]c(=O)[nH]c3c2)cc1)C(N)=O (stereo not drawn) | – | inactive
O=C(Nc1ccc(F)cc1F)NC1CCN(Cc2c(F)cccc2Cl)CC1 | – | inconclusive: 35.5 µM [inhibitor, single point]
CCOc1ccc2[nH]c(SCC(=O)OC)c([N+](=O)[O-])c2c1 | – | inactive
O=C(O)/C=C/C(=O)Nc1ccc(Oc2ncnc3cc(Cl)ccc23)nc1 | – | inactive
COc1cc2ccc(=O)oc2c(O[C@@H]2O[C@H](CO)[C@@H](O)[C@H](O)[C@H]2O)c1O | – | active: 22.4 µM
CC(=O)c1cc(-c2ccccc2)n(CC(=O)NC2CCCC2)c1C | – | inactive
CC(C)C(=O)NC(=S)/C=C1/N(C)c2ccccc2C1(C)C | – | inconclusive: 35.5 µM [inhibitor, partial curve, poor fit]
Cc1c(O)ccc2c3c(c(=O)oc12)CCCC3 | – | inconclusive: 39.8 µM [inhibitor, single point]
Cc1ccc(NC(=O)c2cc(N3C(=O)C=CC3=O)ccc2N2CCOCC2)cc1Cl | – | inconclusive: 35.5 µM [inhibitor, single point]
COc1cc(/C=C(\C#N)c2nc3ccccc3s2)cc([N+](=O)[O-])c1O | – | inconclusive: 28.2 µM [inhibitor, single point]
CC(=O)N(CC(=O)Nc1sc(C)c(C)c1C(N)=O)Cc1ccccc1 | – | inactive
O=C1CCCCCN1CSc1nc2ccccc2s1 | – | inconclusive: 39.8 µM [inhibitor, single point]
COC(=O)c1c(NC(=O)C(C)(C)C)sc2c1CCN(Cc1ccccc1)C2 | – | inconclusive: 0.891 µM [inhibitor, single point]
CCS(=O)(=O)Nc1ccc(C2=NN(C(=O)c3ccccc3)C(c3cccs3)C2)cc1 (stereo not drawn) | – | inactive
Cc1ccccc1N1CC(C(=O)Nc2nnc(SCCN3CCOCC3)s2)CC1=O (stereo not drawn) | – | inconclusive: 7.94 µM [inhibitor, full curve]
CC(=O)OCCNC(=O)c1cccnc1 | – | inconclusive: 39.8 µM [inhibitor, single point]
CN1CCN(C(=O)C2CC(c3ccc(F)cc3)=NO2)CC1 (stereo not drawn) | – | inconclusive: 35.5 µM [inhibitor, single point]
Cc1c(CC(=O)N2CCCCC2)c(=O)oc2cc(O)ccc12 | – | inactive
CCc1c(C)sc(NC(=O)c2cccs2)c1C(N)=O | inconclusive: -33.4% [inhibitor] | –
Cc1nn(Cc2ccc(Cl)cc2)c(C)c1NC(=O)c1cc(-c2ccco2)on1 | – | inconclusive: 0.447 µM [inhibitor, partial curve, poor fit]
COc1cc([N+](=O)[O-])ccc1NC(=O)Nc1cnccn1 | – | inconclusive: 39.8 µM [inhibitor, single point]
COc1ccccc1NC(=O)Nc1ccc2c(c1)CCC2 | – | inconclusive: 0.1 µM [inhibitor, full curve, poor fit]

Some of the entries above, set out differently:
CC(=O)N(CC(=O)Nc1sc(C)c(C)c1C(N)=O)Cc1ccccc1
  Potency: inactive
O=C1CCCCCN1CSc1nc2ccccc2s1
  Potency: inconclusive: 39.8 µM [inhibitor, single point]
